Assay results reported in PMC10556033.
Results are given in words; binding and its absence hold for the method and conditions named. In cells and extracts the contact can be indirect. Some results given as binding are weak or reduced against the parent protein; the word gives no strength. Sequences can lack the tags named with a protein.

Sequences of proteins named here, by UniProt entry; tags and fusion partners are left off.
UniProt O60573: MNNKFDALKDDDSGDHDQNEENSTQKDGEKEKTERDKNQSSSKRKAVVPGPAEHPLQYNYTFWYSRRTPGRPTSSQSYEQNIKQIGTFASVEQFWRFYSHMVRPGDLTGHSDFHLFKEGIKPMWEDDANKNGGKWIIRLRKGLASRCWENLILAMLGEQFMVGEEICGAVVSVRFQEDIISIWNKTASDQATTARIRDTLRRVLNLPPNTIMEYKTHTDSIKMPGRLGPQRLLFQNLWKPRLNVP

T1: His-tagged MEST N163Q mutant (UniProt Q5EB52)
T1 sequence: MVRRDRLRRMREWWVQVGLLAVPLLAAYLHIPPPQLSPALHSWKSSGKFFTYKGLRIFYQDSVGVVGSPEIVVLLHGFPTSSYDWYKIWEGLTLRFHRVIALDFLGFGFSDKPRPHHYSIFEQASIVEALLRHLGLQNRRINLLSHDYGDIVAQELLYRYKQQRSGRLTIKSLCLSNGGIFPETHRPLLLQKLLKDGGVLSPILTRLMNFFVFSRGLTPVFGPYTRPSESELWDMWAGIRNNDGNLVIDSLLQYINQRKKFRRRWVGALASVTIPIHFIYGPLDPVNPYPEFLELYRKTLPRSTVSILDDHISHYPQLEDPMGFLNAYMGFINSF

T2: His-tagged mesoderm-specific transcript (MEST), from MEST cDNA plasmid (UniProt Q5EB52)
T2 sequence (chain, N-glycan with LeY and α1,3-fucosylation at Asn163): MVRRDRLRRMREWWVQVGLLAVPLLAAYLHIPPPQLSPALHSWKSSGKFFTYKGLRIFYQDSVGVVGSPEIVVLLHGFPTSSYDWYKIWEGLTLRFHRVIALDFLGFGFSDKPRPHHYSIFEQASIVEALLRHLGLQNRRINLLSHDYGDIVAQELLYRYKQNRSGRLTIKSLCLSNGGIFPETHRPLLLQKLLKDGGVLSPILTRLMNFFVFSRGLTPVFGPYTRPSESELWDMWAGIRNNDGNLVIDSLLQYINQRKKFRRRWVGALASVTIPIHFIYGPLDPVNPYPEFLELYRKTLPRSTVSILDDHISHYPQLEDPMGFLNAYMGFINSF


Key:
[1] = target: T1, His-tagged MEST N163Q mutant; experiment: co-IP; lysate of HTR-8/SVneo cells transfected with His-tagged MEST cDNA or His-tagged MEST N163Q; precipitated with anti-His antibody, blotted with anti-eIF4E2
[2] = target: T2, His-tagged mesoderm-specific transcript (MEST), from MEST cDNA plasmid; experiment: as above
[3] = target: eukaryotic initiation factor eIF4E2 (human (endogenous in HTR-8/SVneo)) (UniProt O60573); experiment: co-IP; eIF4E2 co-IP from HTR-8/SVneo cells transfected with MEST cDNA or MEST mut (Fig. 5f), or with FUT4 cDNA, FUT4 siRNA or scramble (Fig. 5g); immunoblotting for MEST, 4E-T and GIGYF2

Molecule	binding [1]	binding [2]	binding [3]
His-tagged mesoderm-specific transcript (MEST), from MEST cDNA plasmid (protein, UniProt Q5EB52 1-335, N-glycan with LeY and α1,3-fucosylation at Asn163) MVRRDRLRRMREWWVQVGLLAVPLLAAYLHIPPPQLSPALHSWKSSGKFFTYKGLRIFYQDSVGVVGSPEIVVLLHGFPTSSYDWYKIWEGLTLRFHRVIALDFLGFGFSDKPRPHHYSIFEQASIVEALLRHLGLQNRRINLLSHDYGDIVAQELLYRYKQNRSGRLTIKSLCLSNGGIFPETHRPLLLQKLLKDGGVLSPILTRLMNFFVFSRGLTPVFGPYTRPSESELWDMWAGIRNNDGNLVIDSLLQYINQRKKFRRRWVGALASVTIPIHFIYGPLDPVNPYPEFLELYRKTLPRSTVSILDDHISHYPQLEDPMGFLNAYMGFINSF			binds
Grb10-interacting GYF protein 2 (GIGYF2) (protein, UniProt Q6Y7W6 1-1299) MAAETQTLNFGPEWLRALSSGGSITSPPLSPALPKYKLADYRYGREEMLALFLKDNKIPSDLLDKEFLPILQEEPLPPLALVPFTEEEQRNFSMSVNSAAVLRLTGRGGGGTVVGAPRGRSSSRGRGRGRGECGFYQRSFDEVEGVFGRGGGREMHRSQSWEERGDRRFEKPGRKDVGRPNFEEGGPTSVGRKHEFIRSESENWRIFREEQNGEDEDGGWRLAGSRRDGERWRPHSPDGPRSAGWREHMERRRRFEFDFRDRDDERGYRRVRSGSGSIDDDRDSLPEWCLEDAEEEMGTFDSSGAFLSLKKVQKEPIPEEQEMDFRPVDEGEECSDSEGSHNEEAKEPDKTNKKEGEKTDRVGVEASEETPQTSSSSARPGTPSDHQSQEASQFERKDEPKTEQTEKAEEETRMENSLPAKVPSRGDEMVADVQQPLSQIPSDTASPLLILPPPVPNPSPTLRPVETPVVGAPGMGSVSTEPDDEEGLKHLEQQAEKMVAYLQDSALDDERLASKLQEHRAKGVSIPLMHEAMQKWYYKDPQGEIQGPFNNQEMAEWFQAGYFTMSLLVKRACDESFQPLGDIMKMWGRVPFSPGPAPPPHMGELDQERLTRQQELTALYQMQHLQYQQFLIQQQYAQVLAQQQKAALSSQQQQQLALLLQQFQTLKMRISDQNIIPSVTRSVSVPDTGSIWELQPTASQPTVWEGGSVWDLPLDTTTPGPALEQLQQLEKAKAAKLEQERREAEMRAKREEEERKRQEELRRQQEEILRRQQEEERKRREEEELARRKQEEALRRQREQEIALRRQREEEERQQQEEALRRLEERRREEEERRKQEELLRKQEEEAAKWAREEEEAQRRLEENRLRMEEEAARLRHEEEERKRKELEVQRQKELMRQRQQQQEALRRLQQQQQQQQLAQMKLPSSSTWGQQSNTTACQSQATLSLAEIQKLEEERERQLREEQRRQQRELMKALQQQQQQQQQKLSGWGNVSKPSGTTKSLLEIQQEEARQMQKQQQQQQQHQQPNRARNNTHSNLHTSIGNSVWGSINTGPPNQWASDLVSSIWSNADTKNSNMGFWDDAVKEVGPRNSTNKNKNNASLSKSVGVSNRQNKKVEEEEKLLKLFQGVNKAQDGFTQWCEQMLHALNTANNLDVPTFVSFLKEVESPYEVHDYIRAYLGDTSEAKEFAKQFLERRAKQKANQQRQQQQLPQQQQQQPPQQPPQQPQQQDSVWGMNHSTLHSVFQTNQSNNQQSNFEAVQSGKKKKKQKMVRADPSLLGFSVNASSERLNMGEIETLDDY			binds

Continued, values first:

binding [1]	binding [2]	binding [3]	Molecule
binds	binds		eukaryotic initiation factor eIF4E2 (from UniProt O60573 1-245)
		binds	eIF4E-Transporter (4E-T) (protein, UniProt Q9NRA8 1-985) MDRRSMGETESGDAFLDLKKPPASKCPHRYTKEELLDIKELPHSKQRPSCLSEKYDSDGVWDPEKWHASLYPASGRSSPVESLKKELDTDRPSLVRRIVDPRERVKEDDLDVVLSPQRRSFGGGCHVTAAVSSRRSGSPLEKDSDGLRLLGGRRIGSGRIISARTFEKDHRLSDKDLRDLRDRDRERDFKDKRFRREFGDSKRVFGERRRNDSYTEEEPEWFSAGPTSQSETIELTGFDDKILEEDHKGRKRTRRRTASVKEGIVECNGGVAEEDEVEVILAQEPAADQEVPRDAVLPEQSPGDFDFNEFFNLDKVPCLASMIEDVLGEGSVSASRFSRWFSNPSRSGSRSSSLGSTPHEELERLAGLEQAILSPGQNSGNYFAPIPLEDHAENKVDILEMLQKAKVDLKPLLSSLSANKEKLKESSHSGVVLSVEEVEAGLKGLKVDQQVKNSTPFMAEHLEETLSAVTNNRQLKKDGDMTAFNKLVSTMKASGTLPSQPKVSRNLESHLMSPAEIPGQPVPKNILQELLGQPVQRPASSNLLSGLMGSLEPTTSLLGQRAPSPPLSQVFQTRAASADYLRPRIPSPIGFTPGPQQLLGDPFQGMRKPMSPITAQMSQLELQQAALEGLALPHDLAVQAANFYQPGFGKPQVDRTRDGFRNRQQRVTKSPAPVHRGNSSSPAPAASITSMLSPSFTPTSVIRKMYESKEKSKEEPASGKAALGDSKEDTQKASEENLLSSSSVPSADRDSSPTTNSKLSALQRSSCSTPLSQANRYTKEQDYRPKATGRKTPTLASPVPTTPFLRPVHQVPLVPHVPMVRPAHQLHPGLVQRMLAQGVHPQHLPSLLQTGVLPPGMDLSHLQGISGPILGQPFYPLPAASHPLLNPRPGTPLHLAMVQQQLQRSVLHPPGSGSHAAAVSVQTTPQNVPSRSGLPHMHSQLEHRPSQRSSSPVGLAKWFGSDVLQQPLPSMPAKVISVDELEYRQ
